# Laboratory results: PubChem BioAssay AID1508588 (Peter MacCallum Cancer Centre, 2020)
# Purpose: 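Knock-downs boosting vemurafenib effects on melanoma cell growth or lactate release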 (primary screen)
# Cells: human WM266.4 melanoma cells (BRAF V600 mutant)
# Reagent: siRNA pool against human genes, 40 nM
# Duration: 96 h from transfection to read-out
# Treatment: vemurafenib 300 nM (about IC25), added 48 h after transfection, for 48 h; comparison arm got DMSO vehicle only
# Read-out: 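Cell gain (DAPI nuclei at end minus before drug, mean of two replicates) and medium lactate by absorbance per cell, both as ratio to non-targeting siRNA, also grouped into fold-change classes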
# Direction: cell gain with vemurafenib: higher = more cell gain than with non-targeting siRNA; lactate per cell with vemurafenib: higher = more lactate made per cell
# Hit rule: 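a knock-down counts as enhancing when its fold-change classes with vehicle and with vemurafenib, taken together, show a stronger drug effect on cell gain or lactate per cell; exact class pairs not stated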
# Calls: active = enhances vemurafenib effect; inactive = no enhancement seen
# This is one part, drawn at random, of about 18,000 reagents tested. 790 of them (4.4%) count as active. 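Calls rest on a combination of fold-change classes in drug and vehicle arms, not all shown here.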 A number with no mark means an inactive call. A reagent listed more than once was tested more than once; the source does not tell the runs apart. No sequences are given here.
gene symbol,PubChem SID,cell gain with vemurafenib,lactate per cell with vemurafenib
CCN5,SID134315053,1.02,0.68
DNAAF6,SID135623530,0.63,0.86
ETV2,SID152146882,0.85,1.36
SPMIP10,SID135625080,0.41,1.81
COMMD9,SID135624046,0.6,0.7
COMMD9,SID135625084,0.71,0.43
TRIM31,SID135621274,0.69,0.96
DHX32,SID134310069,0.21,1.06
MTMR3,SID152148856,0.35,1.37
MRC1,SID135622187,0.84,0.52
MRC1,SID135625298,0.88,0.62
NID1,SID135623806,0.82,0.7
TENT5D,SID152155817,0.52,1.54
ARHGEF11,SID134314932,0.73,0.16
DLGAP4,SID135621776,0.58,0.9
ANKRD20A1,SID135622822,0.79,0.53
SMU1,SID152150560,-0.16,2.6
CLEC1A,SID134324956,0.46,1.66
ZNF302,SID152149905,0.86,0.28
PBX1,SID134323455,0.4,2.2
YEATS2,SID134321099,0.32,0.68
CNGA3,SID152156764,0.14,1.09
NUDT9,SID134313707,0.65,0.44
NUDT9,SID134313707,0.62,0.79
SMIM11,SID152154677,1.01,0.6
CDH18,SID134316298,0.84,0.98
NTNG2,SID134324885,0.55,0.62
EFCC1,SID134318594,1.11,0.65
SUGP1,SID134321444,0.64,1.12
SMARCAL1,SID152147674,0.4,0.6
DHRS3,SID152148489,0.3,0.97
INCA1,SID134330014,0.52,1.12
NOP53,SID152153825,0.36,1.18
PRPF40B,SID134317062,0.52 (active),0.48
